Test results reported in the supplement of paper PMC11348887.
Structures can show the parent of a compound that is named as a salt. This is one part of the list. Small differences around the control level are noise.

Assays:
Conditions in all cases: 5 µM; treatment: days 7-14 after plating, readout day 21
[1] = test system: hPSC-derived cortical neurons (WA09); experiment: nucleus area z-score vs screen plate; higher = larger nuclei (more mature)
[2] = test system: hPSC-derived cortical neurons (WA09); experiment: total neurite length per nucleus (MAP2) z-score; higher = more neurite growth
[3] = test system: hPSC-derived cortical neurons (WA09); experiment: nucleus roundness z-score vs screen plate; higher = rounder nuclei (more mature)
[4] = test system: hPSC-derived cortical neurons (WA09); experiment: KCl-induced FOS+/EGR-1+ double-positive nuclei fraction z-score (KCl minus unstimulated); higher = stronger activity-induced IEG response

Compound | nucleus area z-score [1] | total neurite length per nucleus (z-score) [2] | nucleus roundness z-score [3] | KCl-induced FOS+/EGR-1+ double-positive nuclei fraction z-score [4]
C=CCc1cccc(/C=N/NC(=O)CN2CCN(Cc3ccccc3)CC2)c1O | -0.91 | -1.47 | -2.92 | 0.385
CC1(C)CCC[C@]2(C)[C@H]3CC(=O)O[C@]3(C)CC[C@@H]12 [Sclareolide] | 0.89 | -0.821 | -1.43 | 0.564
Cc1cn2cc(C(=O)N(C)CCO)cc(N[C@@H]3CCOc4cccc(C)c43)c2n1 | -0.455 | -0.0686 | -0.258 | 3.27
C=C1CC[C@H](O)C/C1=C/C=C1\CCC[C@]2(C)[C@@H]([C@H](C)CCCC(C)C)CC[C@@H]12 [Vitamin D3] | 0.196 | -0.334 | -0.534 | -1.93
CCOc1ccc(NC(=O)CC(C)O)cc1 (configuration not stated) [Bucetin] | 1.02 | 0.332 | -0.707 | 0.389
C=CC(=O)N1CCC[C@@H](n2nc(-c3ccc(Oc4ccccc4)cc3)c3c(N)ncnc32)C1 | 0.919 | -0.154 | -0.396 | -0.641
CCCCC(=O)O[C@]1(C(=O)CO)[C@@H](C)C[C@H]2[C@@H]3CCC4=CC(=O)C=C[C@]4(C)[C@@]3(F)[C@@H](O)C[C@@]21C [Betamethasone Valerate] | -0.0285 | 0.991 | 1.06 | -0.262
CCOC(=O)C1=C(COCCN)NC(C)=C(C(=O)OC)C1c1ccccc1Cl (configuration not stated) [Amlodipine Besylate] | -2.31 | -2 | -1.62 | -1.41
CN1CCC(=C2c3ccccc3C=Cc3ccccc32)CC1 [Cyproheptadine HCl] | -2 | -1.09 | -1.55 | 0.138
CCN(CC)CCOc1ccc(Nc2ncc3cc(-c4c(Cl)cccc4Cl)c(=O)n(C)c3n2)cc1 | -2.42 | -0.66 | -4.35 | 1.08
CCN1/C(=C/C(C)=O)Sc2ccc(OC)cc21 | -0.195 | 0.434 | -0.00359 | -0.094
COC(=O)c1ccc([C@H]2c3[nH]c4ccccc4c3C[C@H](C(=O)OC)N2C(=O)CCl)cc1 | -5.42 | -3.07 | -2.96 | -0.0954
COc1ccc(N2C(=O)/C(=C\c3ccc([N+](=O)[O-])s3)SC2=S)cc1 | 0.653 | -0.384 | 0.309 | -0.0978
COc1cc(N2CCC(N3CCN(C)CC3)CC2)ccc1Nc1ncnc(Nc2ccccc2S(=O)(=O)C(C)C)n1 | -3.61 | -0.393 | -1.12 | -0.203
CCN(CC)CC(=O)Nc1c(C)cccc1C [Lidocaine hydrochloride] | 0.543 | 0.553 | 0.324 | 1.61
Cc1noc(NS(=O)(=O)c2ccc(N)cc2)c1C [Sulfisoxazole] | -0.179 | 0.718 | -0.412 | 0.131
Cc1nn(C)c2c1C(c1ccc(C(F)(F)F)cc1)C(C#N)=C(N)O2 (configuration not stated) | 0.95 | -0.0626 | 0.487 | 0.216
C[C@@]1(c2cc(-c3cncnc3)c(F)cc2F)CCSC(N)=N1 | 0.471 | 1.32 | 1.65 | 0.921
Cc1c(NC(=O)c2cccnc2)c(=O)n(-c2ccccc2)n1C [Nifenazone] | -0.293 | 0.484 | 1.48 | 1.78
CNS(=O)(=O)Nc1nccc(Cc2c(C)c3ccc(Oc4ncccn4)cc3oc2=O)c1F | 1.38 | 0.847 | 0.959 | 0.0432

Compound | nucleus area z-score [1] | total neurite length per nucleus (z-score) [2] | nucleus roundness z-score [3] | KCl-induced FOS+/EGR-1+ double-positive nuclei fraction z-score [4]
CCOc1ccn(-c2ccc(F)cc2)c(=O)c1C(=O)Nc1ccc(Oc2ccnc(N)c2Cl)c(F)c1 | -0.00945 | 0.6 | -0.302 | -0.0968
CCOc1ccc(Cc2cc([C@@H]3O[C@H](SC)[C@@H](O)[C@H](O)[C@H]3O)ccc2Cl)cc1 [Sotagliflozin (LX4211)] | 1.2 | 0.284 | -0.373 | -0.831
CN1C(C(=O)Nc2ccccn2)=C(O)c2sccc2S1(=O)=O [Tenoxicam] | 1.57 | 0.438 | -0.13 | 3.41
COC(=O)C1=C(C)NC(C)=C(C(=O)OCCN(C)Cc2ccccc2)C1c1cccc([N+](=O)[O-])c1 (configuration not stated) [Nicardipine HCl] | -2.44 | -1.45 | -0.868 | -0.355
C[C@@H](NC(=O)c1ncnc(N)c1Cl)c1ncc(C(=O)Nc2cc(C(F)(F)F)c(Cl)cn2)s1 | 0.312 | 0.712 | 0.299 | -0.416
CC(C)OC(=O)OCOP(=O)(CO[C@H](C)Cn1cnc2c(N)ncnc21)OCOC(=O)OC(C)C [Tenofovir Disoproxil Fumarate] | -0.191 | 0.776 | -0.0656 | -1.23
O=c1c(-c2ccc(O)cc2)coc2cc(O)cc(O)c12 [Genistein] | 0.934 | 0.587 | 0.225 | 0.015
CN1CCN2c3ccccc3Cc3ccccc3C2C1 (configuration not stated) [Mianserin HCl] | -0.642 | -0.0257 | -0.00362 | 0.635
C#C[C@]1(O)CC[C@H]2[C@@H]3CCC4=CCCC[C@@H]4[C@H]3C(=C)C[C@@]21CC [Desogestrel] | 1.08 | 0.604 | 0.299 | 0.482
COC(=O)/C=C/C(=O)OC [Dimethyl Fumarate] | 0.446 | 0.973 | 0.369 | 4.88
COc1cccc(-c2cc(=O)c3ccccc3o2)c1N | 3.8 | 0.0992 | 0.643 | 1.81
C[C@H]1O[C@@H](n2cc(F)c(=O)[nH]c2=O)[C@H](O)[C@@H]1O [Doxifluridine] | 2.11 | -1.75 | -1.48 | -0.423
C[C@H]1C[C@@H]2[C@H]([C@@H](O)C[C@@]3(C)[C@H]2CC[C@]3(O)C(=O)CO)[C@@]2(C)C=CC(=O)C=C12 [Methylprednisolone] | 0.0408 | -0.0864 | -0.393 | 0.112
Nc1ccccc1NC(=O)c1ccc(CNC(=O)OCc2cccnc2)cc1 [Entinostat (MS-275)] | -7.06 | -2.72 | -2.09 | -0.567
Cc1cccc(Nc2nc(NC3CCCCC3N)ncc2C(N)=O)c1 (configuration not stated) | -0.0587 | 0.381 | -0.116 | -0.975
Oc1c(Cl)cc(Cl)c(Cl)c1Cc1c(O)c(Cl)cc(Cl)c1Cl [Hexachlorophene] | -0.172 | 4.28 | -1.32 | 0.255
Cc1oncc1C(=O)Nc1ccc(C(F)(F)F)cc1 [Leflunomide] | 1.5 | 1.5 | 0.529 | 1.38
CCN(CC)CCCC(C)Nc1nc(C)cc(Nc2ccc3nc(C)cc(N)c3c2)n1 (configuration not stated) | -0.939 | -0.557 | -0.117 | -0.998
O=C(Nc1cccc2cccnc12)c1ccc(N2C(=O)[C@@H]3[C@H](C2=O)[C@@H]2C=C[C@H]3C2)cc1 [IWR-1-endo] | -0.421 | -0.355 | 0.15 | 1.51
C[C@@H]1C(=O)O[C@H]2C[C@@]34[C@H]5C[C@@H](C(C)(C)C)[C@]36[C@@H](OC(=O)[C@@H]6O)O[C@@]4(C(=O)O5)[C@]21O [Ginkgolide A] | -0.781 | -0.233 | -0.00754 | -0.376

An excerpt from above in order of count of non-hydrogen atoms, low to high.
Compound | nucleus area z-score [1] | total neurite length per nucleus (z-score) [2] | nucleus roundness z-score [3] | KCl-induced FOS+/EGR-1+ double-positive nuclei fraction z-score [4]
CN1C(C(=O)Nc2ccccn2)=C(O)c2sccc2S1(=O)=O [Tenoxicam] | 1.57 | 0.438 | -0.13 | 3.41
C[C@@H](NC(=O)c1ncnc(N)c1Cl)c1ncc(C(=O)Nc2cc(C(F)(F)F)c(Cl)cn2)s1 | 0.312 | 0.712 | 0.299 | -0.416
COC(=O)C1=C(C)NC(C)=C(C(=O)OCCN(C)Cc2ccccc2)C1c1cccc([N+](=O)[O-])c1 (configuration not stated) [Nicardipine HCl] | -2.44 | -1.45 | -0.868 | -0.355

(continued)

Compound | nucleus area z-score [1] | total neurite length per nucleus (z-score) [2] | nucleus roundness z-score [3] | KCl-induced FOS+/EGR-1+ double-positive nuclei fraction z-score [4]
CSc1nc2cc(Cl)c(Oc3cccc(Cl)c3Cl)cc2[nH]1 [Triclabendazole] | 1.74 | 0.191 | 0.107 | -0.416
CCCC[C@@H](C=O)NC(=O)[C@H](CC(C)C)NC(=O)OCc1ccccc1 [Calpeptin] | 1.35 | 0.0131 | -0.391 | 0.981
NCCc1ccc(O)c(O)c1 [Dopamine HCl] | 0.075 | 0.462 | 0.81 | 0.0686
CCC(C)n1ncn(-c2ccc(N3CCN(c4ccc(OCC5COC(Cn6cncn6)(c6ccc(Cl)cc6Cl)O5)cc4)CC3)cc2)c1=O (configuration not stated) [Itraconazole] | 0.08 | 0.158 | 0.76 | 0.139
O=C(O)C[C@H](O)C[C@H](O)/C=C/c1c(C2CC2)nc2ccccc2c1-c1ccc(F)cc1 [Pitavastatin Calcium] | -5.24 | -1.93 | -3.8 | -1.28
C[C@@H](O[C@H]1OCCN(Cc2n[nH]c(=O)[nH]2)[C@H]1c1ccc(F)cc1)c1cc(C(F)(F)F)cc(C(F)(F)F)c1 [Aprepitant] | -0.477 | -0.348 | 0.17 | -0.0145
NC(=O)c1cccc(-c2cccc(OC(=O)NC3CCCCC3)c2)c1 | 0.741 | 1.07 | 0.941 | 1.12
Cn1c(=O)c2c(ncn2CC(O)CO)n(C)c1=O (configuration not stated) [Dyphylline] | 0.244 | 0.115 | 0.0132 | 1.19
NC(=O)c1cnc2[nH]ccc2c1NC1[C@@H]2CC3C[C@H]1CC(O)(C3)C2 (some centres not stated) | -0.0578 | 0.573 | 0.43 | -0.354
Oc1c(Br)cc(Br)c2cccnc12 [Broxyquinoline] | 0.0971 | 0.866 | 0.731 | 1.89
CN(C)CCc1c[nH]c2ccc(C[C@H]3COC(=O)N3)cc12 [Zolmitriptan] | -0.428 | -0.219 | -0.0163 | -0.765
CCCCCCNC(=O)Nc1ccc(S(=O)(=O)Nc2ccc(CCNC[C@H](O)COc3ccc(O)cc3)cc2)cc1 | -0.626 | 0.758 | 0.177 | 1.11
N#Cc1cc2cc(CN3CCC(Nc4ncnc5sc(CC(F)(F)F)cc45)CC3)ccc2[nH]1 | -6.45 | -2.44 | -1.98 | -0.623
CC#C[C@]1(O)CC[C@H]2[C@@H]3CCC4=CC(=O)CCC4=C3[C@@H](c3ccc(N(C)C)cc3)C[C@@]21C [Mifepristone] | -2.16 | -3.29 | -0.738 | -0.805
CN1CCC[C@@H]1Cc1c[nH]c2ccc(CCS(=O)(=O)c3ccccc3)cc12 [Eletriptan HBr] | -2.68 | 1.3 | -0.219 | 1.57
CC(C)N(CCCNC(=O)Nc1ccc(C(C)(C)C)cc1)C[C@H]1O[C@@H](n2cc(Br)c3c(N)ncnc32)[C@H](O)[C@@H]1O | -0.0987 | 0.286 | 0.649 | 1.71
CO/N=C(\C(=O)N[C@@H]1C(=O)N2C(C(=O)O)=C(CSc3nnnn3C)CS[C@H]12)c1csc(N)n1 [Cefmenoxime hydrochloride] | 0.232 | -0.976 | -0.518 | 0.628
CCOC(=O)C1=C(C)NC(C)=C(C(=O)OC)C1c1cccc(Cl)c1Cl (configuration not stated) [Felodipine] | 0.0934 | -1.46 | 0.169 | -0.499
